# Hit rate of the full screen: of about 31,000 sequences, about 1,400 (4.5%) were called active.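 The calls were made as follows: active = median seed-adjusted z-score above 1 or below -1; inactive = the rest.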 Some of the results follow.
# Assay: Novel Modifiers of Survival Motor Neuron (SMN) Protein: Gene Identification via Genome-wide siRNA Screen;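 also: luminescence tracks full-length SMN protein made from the SMN2 reporter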
# Settings: HEK293T SMN2-luciferase reporter, siRNA knockdown, 72 h; actives lie on both sides
# How it was run: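 Genome-wide siRNA screen (10418 genes, 3 siRNAs each, 1 pmol per well) by reverse transfection in HEK293T cells stably carrying an SMN2-luciferase reporter; luminescence after 72 hours, normalized to negative-control siRNA, log10-transformed, MAD-scored.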
row,Sequence,median seed-adjusted z-score
1,CGAAGACACGUAGCCCUAATT against PUS3,inactive: 0.584
2,GUAGCAGUGUCACGCCUUATT against BRD2,inactive: -0.242
3,GGCUCAUGUUCGACAAGGATT against NTNG2,inactive: 0.403
4,AGAUCACUGUAUCACCUCUTT against VDR,inactive: -0.031
5,GCAGAAGAGUAUUAAGAAATT against BATF,inactive: -0.0501
6,GCUGAGUUAUGAAGGCGAATT against SERPINF1,inactive: -0.145
7,GCUAAUUACAUUGAACAAATT against EIF4E,inactive: -0.404
8,GGCUGGAUGAGGGAUAGUATT against CHAC1,inactive: 0.517
9,CCAUAAGUCUGGAAUCACUTT against ADAM2,inactive: -0.116
10,GGAGCGCAUUGAUACUAGATT against HSPA5,inactive: 0.19
11,CAAGAACUUGUGGAACUCATT against PAIP1,inactive: -0.0178
12,GGACCGGAAGUGUGGGAUATT against NDUFA13,inactive: -0.138
13,CCUUAUUUCUAUCACCCAATT against BARHL2,inactive: -0.147
14,GGUAGUGAAGGAUUACUCATT against WDR36,inactive: 0.00836
15,GCAUUGAGAUUGACCAGAATT against MAP2K7,inactive: -0.772
16,CCACAAGACCACAAACUAATT against LIPT1,inactive: 0.552
17,GAACUGAGAUCGAAAUUGATT against HES7,inactive: -0.286
18,GUGACUCGCUGGUUUGUCATT against VARS,inactive: 0.237
19,GGAUGCGCACAGUCACCAATT against TACR2,inactive: 0.201
20,GCUGCUAUUUGAUAGACCATT against HNRNPM,inactive: 0.499
21,GAUCUACUGUGAGCGGGUATT against KIF1C,inactive: 0.749
22,CAUUCAGUCGUUUCAGAUATT against ZNF443,inactive: 0.0544
23,GGGCAUUUUUGUCGAAGAATT against SLC4A4,inactive: 0.43
24,CACUUUUCACCAAAGUCAATT against TTC33,inactive: 0.104
25,AGACUUGUCUCAGGAAUUUTT against UGT1A6,inactive: -0.0939
26,CCGCAAUCAUAGAUCAUGATT against CDC42BPA,inactive: 0.257
27,GUGACAAAGCUAACGAAUUTT against PRDX3,inactive: -0.0659

# Another view of part of the listing above:
row	Sequence	median seed-adjusted z-score
12	GGACCGGAAGUGUGGGAUATT against NDUFA13	inactive: -0.138
15	GCAUUGAGAUUGACCAGAATT against MAP2K7	inactive: -0.772

# Remaining list, next part:

row,Sequence,median seed-adjusted z-score
1,CCAUGCACAUAAAAUAACUTT against ZNF625,inactive: -0.0711
2,CCUACAUGCUUCGAACUAATT against ARSK,inactive: -0.00229
3,AGCAGCACAUCAAAAAGAATT against SPTBN4,inactive: -0.0625
4,GAUAUUUGCCUAUGCCUUUTT against ZMYND19,inactive: 0.369
5,GGGAAUUCUUCGUACUCCATT against CLTC,inactive: -0.0662
6,CCCUAAGCAUGGCUAUGCATT against GTF2H2D,inactive: 0.22
7,GCAAAGAGGAAAUCCCACATT against CYGB,inactive: -0.34
8,GGCUAUCUGCUGAAGCGCATT against RASAL1,inactive: -0.089
9,CCAUGUUUGAACAAGCCCATT against MYL7,active: -1.21
10,GCCUAGAGGUUUGCCCUGATT against ATHL1,inactive: 0
11,AGAAGGAUAUUUAUGAUGATT against ZNF302,inactive: 0.498
12,CUUGAUGACUCUAAACCUATT against RUNX2,inactive: 0.335
13,GUUGCUGAGUGUACUCUAATT against LEF1,inactive: 0.808
14,GAUUGAUAAAUAUCGUGUATT against CDC23,inactive: 0.0112
15,GAACCCAUCUGCUCUGUGATT against PTPN7,inactive: -0.189
16,UGACCUCUCCAAACCCUCUTT against MUS81,inactive: 0
17,AGAGGACGGAAGAUAAGAATT against ING5,inactive: -0.193
18,CCGUAAACAUAUGACUAAATT against ZBTB11,inactive: -0.105
19,AGAUUGACGAUGACUGCAATT against PLCH2,inactive: 0.593
20,CCAUAAUGAUACUAUAUGUTT against SLC35D2,inactive: -0.127
21,GCUCUUCAUUUUAAAGGCATT against UNC5C,inactive: 0.0496
22,CCAUCUUACGUACCUUCUATT against DPEP2,inactive: 0
23,UCCUGUUCCUGUACAUAAATT against IL5,inactive: -0.229
24,CAAAGUUGAGAGGACCUUUTT against TTBK1,inactive: 0.00054
25,GUAUCGCUGUUUCUACGGUTT against LILRA1,inactive: -0.231
26,CCUUUUACCCGGAAGCUCATT against ABCA7,inactive: -0.711
27,GAAACGAUUAUAUAUGGAATT against FBXO11,inactive: 0.733

# Source: PubChem BioAssay AID1347426 (Functional Genomics Laboratory (NCATS/FGL), 2020)
